About 5,400 (1.8%) of roughly 300,000 compounds were called active. The shares of active, inactive and inconclusive entries below differ from those in the screen. The call rests on the fitted dose curve; tested in HEK293 cells. Potencies of inconclusive entries are doubtful fits and often do not repeat.
Assay: qHTS for inhibitors of binding or entry into cells for Marburg Virus
Details: Marburg virus pseudotyped entry inhibition, cell reporter; activity change, negative = inhibition: at 37.8 µM (top of the series) unless noted
On the % scale 0 is the no-effect control and ±100 the full control effect; potency means the concentration at half of the fitted maximal effect.

SMILES | activity change, negative = inhibition | Potency
COc1ccc(C(=O)NCC(=O)NCC2(N(C)C)CCCCC2)cc1OC | inactive: 0.415% | –
CCOC(=O)Cn1c(=O)oc2cc(S(=O)(=O)NCCc3ccc(OCC)c(OCC)c3)ccc21 | – | inconclusive: 3.66 µM [activator, partial curve, poor fit]
Cc1nn(-c2ccc(N3CCCCC3)nn2)c(C)c1CCC(=O)Nc1ccc(F)c(F)c1 | – | inconclusive: 35.5 µM [inhibitor, single point]
COc1cccc(C(=O)N2CCC(n3nccc3NC(=O)C3CCOC3)CC2)c1 (configuration not stated) | – | inconclusive: 35.5 µM [activator, single point]
COc1ccc(N2CCN(Cc3nc4c(c(=O)n(C)c(=O)n4C)n3CC(C)=O)CC2)cc1 | inactive: -22.6% | –
Oc1cccc(Nc2ncnc3c2oc2ccccc23)c1 | – | inconclusive: 35.5 µM [inhibitor, single point]
Cc1ccccc1NC(=O)Cc1ccccc1 | – | inconclusive: 3.55 µM [activator, full curve, poor fit]
CC(C)c1ccc(/C=C/C(=O)Nc2nncs2)cc1 | – | inconclusive: 13 µM [inhibitor, single point]
COc1ccc(OCC(=O)Nc2cc(OC)ccc2N2CCCCC2)cc1 | – | inconclusive: 12.6 µM [inhibitor, partial curve, poor fit]
CCCn1c(N)c(Sc2ccc(C)cc2)c(=O)n(CCC)c1=O | – | inconclusive: 3.16 µM [inhibitor, single point]
O=C(N/N=C/c1ccc([N+](=O)[O-])s1)c1ccncc1 | – | inconclusive: 20 µM [inhibitor, single point]
CC(C)(C)c1csc(NC(=O)Cc2ccc(S(=O)(=O)N3CCOCC3)s2)n1 | – | inconclusive: 2.82 µM [inhibitor, full curve]
Cc1cccc(NC(=O)COc2ccc3oc4c(c3c2)CCCC4)c1 | – | inconclusive: 12.6 µM [activator, single point]
Cn1c(CN2CCOCC2)nc2cc(NC(=O)c3ccccc3Cl)ccc21 | inactive: 5.9% | –
O=C(CC1SC(=O)N(Cc2ccccc2)C1=O)Nc1nccs1 (configuration not stated) | – | inconclusive: 0.0355 µM [inhibitor, full curve, poor fit]
COCCCNc1oc(-c2ccccc2OC)nc1C#N | inactive: -11.1% | –
CC(C)NCC(=O)NC12CC3CC(CC(C3)C1)C2 | – | inconclusive: 35.5 µM [inhibitor, single point]
CC1CCCCN1S(=O)(=O)c1cnc(Cl)c(Br)c1 (configuration not stated) | – | inconclusive: 23.1 µM [inhibitor, single point]
O=C(c1cc([N+](=O)[O-])cc([N+](=O)[O-])c1)N1CCCc2ccccc21 | – | active: 10 µM
COc1ccc(CCNC(=O)CCCc2nnc3n(C)c(=O)c4sccc4n23)cc1OC | inactive: 17.1% [at 46.1 µM] | –
O=C(NCCCN1CCOCC1)[C@@H]1CSC2c3ccccc3C(=O)N21 (some centres not stated) | – | inconclusive: 31.6 µM [activator, single point]

3 entries picked at random from those above, as already listed:
SMILES | activity change, negative = inhibition | Potency
CC(C)(C)c1csc(NC(=O)Cc2ccc(S(=O)(=O)N3CCOCC3)s2)n1 | – | inconclusive: 2.82 µM [inhibitor, full curve]
COc1ccc(CCNC(=O)CCCc2nnc3n(C)c(=O)c4sccc4n23)cc1OC | inactive: 17.1% [at 46.1 µM] | –
Cc1ccccc1NC(=O)Cc1ccccc1 | – | inconclusive: 3.55 µM [activator, full curve, poor fit]

(listing goes on)

SMILES | activity change, negative = inhibition | Potency
CCOC(=O)CN1C(=O)[C@]2(OCCC=C[C@@H]2C)c2ccccc21 | inactive: 1.22% [at 14.2 µM] | –
CC(=O)Nc1ccc(S(=O)(=O)N/N=C/c2ccc(C)s2)cc1 | inactive: -0.822% | –
Cc1ccc2[nH]c(=O)c(CN(Cc3cccs3)S(=O)(=O)c3ccc4c(c3)OCCO4)cc2c1 | inactive: -26.5% | –
COc1cc(SC)ccc1C(=O)N(C)Cc1ccccc1 | inactive: 11% | –
CCS(=O)(=O)n1nc(-c2ccc(C)cc2)nc1N | inactive: 9.49% [at 46.1 µM] | –
CNCc1cc(Cl)cc(OC)c1OC(C)C | – | inconclusive: 8.91 µM [inhibitor, partial curve, poor fit]
Cc1cc(C(=O)CN2C(=O)NC(c3ccccc3)(c3ccccc3)C2=O)c(C)n1Cc1ccco1 | – | inconclusive: 29.1 µM [inhibitor, single point]
O=C(N/N=C/c1ccc(Cl)c([N+](=O)[O-])c1)c1cnccn1 | – | inconclusive: 0.112 µM [activator, full curve, poor fit]
Cc1ccc(S(=O)(=O)NC2(C(F)(F)F)NC(=O)N(c3ccccc3F)C2=O)cc1 (configuration not stated) | – | inconclusive: 3.55 µM [inhibitor, single point]
CCc1ccccc1N(CC)C(=O)Cn1nc(Cc2ccncc2)c2ccccc2c1=O | – | inconclusive: 8.91 µM [inhibitor, partial curve, poor fit]
O=C(Cc1ccc(-c2ccccc2)cc1)NC(c1ccccc1)c1ccccc1 | – | inconclusive: 1.26 µM [inhibitor, single point]
CC12CC(=O)C3C(CCC4CC=CCC43C)C1CCC2=O (configuration not stated) | inconclusive: 12% [activator] | –
COc1ccc(S(=O)(=O)Nc2ccc(N3CCOCC3)cc2)cc1[N+](=O)[O-] | – | inconclusive: 6.31 µM [inhibitor, single point]
COc1ccccc1N1CCN(c2ccc3ccccc3n2)CC1 | – | inconclusive: 10 µM [inhibitor, partial curve, poor fit]
CCOC(=O)C1CCN(C(=O)COC(=O)c2ccc3[nH]c4c(c3c2)CCCC4)CC1 | – | inconclusive: 35.5 µM [inhibitor, single point]
Cc1ccc(O)c(N=CC2=C(O)c3ccccc3C2=O)c1 | – | inconclusive: 35.5 µM [inhibitor, single point]
COc1ccc(-c2cc(C(=O)Nc3cc(C)n(Cc4ccc(Cl)cc4)n3)no2)cc1OC | – | inconclusive: 29.1 µM [inhibitor, single point]
Cn1c2c(c(=O)n(C)c1=O)C(C(F)(F)F)(C(F)(F)F)N=C(C1CCCCC1)N2 | – | inconclusive: 7.31 µM [inhibitor, partial curve, poor fit]
O=S(=O)(c1ccc2c(c1)OCCO2)N1CCC(n2nnc3cc(C(F)(F)F)ccc32)CC1 | – | inconclusive: 10 µM [inhibitor, partial curve, poor fit]
COCCCN1CN=C(NS(=O)(=O)c2ccc(NC(C)=O)cc2)NC1 | – | inconclusive: 5.62 µM [activator, single point]
COc1ccc(Cc2[nH]n3c(=O)cc(C)nc3c2-c2ccccc2)cc1 | – | inconclusive: 2 µM [inhibitor, partial curve, poor fit]

Reference: PubChem BioAssay AID540276 (National Center for Advancing Translational Sciences (NCATS), 2011)
